For experiment [1], the target named is T1, human sp-myc-SEMA4D-Q497P (human) (UniProt Q92854).
T1 sequence: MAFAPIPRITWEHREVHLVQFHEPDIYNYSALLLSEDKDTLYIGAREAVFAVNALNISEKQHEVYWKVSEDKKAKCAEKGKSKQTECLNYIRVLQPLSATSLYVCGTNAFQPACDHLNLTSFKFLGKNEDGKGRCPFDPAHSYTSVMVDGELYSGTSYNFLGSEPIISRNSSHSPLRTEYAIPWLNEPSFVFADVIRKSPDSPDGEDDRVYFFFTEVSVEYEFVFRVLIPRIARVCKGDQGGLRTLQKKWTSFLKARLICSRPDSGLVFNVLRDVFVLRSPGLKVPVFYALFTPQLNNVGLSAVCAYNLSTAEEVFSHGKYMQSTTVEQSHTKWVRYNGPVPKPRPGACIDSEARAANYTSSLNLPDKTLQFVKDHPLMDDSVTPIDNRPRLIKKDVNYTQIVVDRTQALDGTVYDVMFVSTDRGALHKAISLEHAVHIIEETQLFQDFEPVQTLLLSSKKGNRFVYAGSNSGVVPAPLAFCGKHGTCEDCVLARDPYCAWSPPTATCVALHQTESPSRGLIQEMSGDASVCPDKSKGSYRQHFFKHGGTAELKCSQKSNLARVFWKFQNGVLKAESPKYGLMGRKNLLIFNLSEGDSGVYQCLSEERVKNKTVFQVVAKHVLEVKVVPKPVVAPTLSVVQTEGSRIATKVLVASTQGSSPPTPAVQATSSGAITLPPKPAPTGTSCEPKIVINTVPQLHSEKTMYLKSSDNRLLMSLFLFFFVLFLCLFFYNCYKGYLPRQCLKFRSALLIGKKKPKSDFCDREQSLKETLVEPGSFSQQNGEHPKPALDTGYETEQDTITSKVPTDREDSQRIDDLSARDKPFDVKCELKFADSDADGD
In words: co-IP; HEK293T cells co-transfected with the tagged constructs (the methods name Hela cells); Flag lysis buffer (50 mM Tris pH 7.4, 150 mM NaCl, 1 mM EDTA, 1% Triton X100); immunoprecipitation 2 h at 4 C, 5 washes in lysis buffer.

The target of experiment [2] is T2, human sp-myc-SEMA4D (human) (UniProt Q92854).
T2 sequence: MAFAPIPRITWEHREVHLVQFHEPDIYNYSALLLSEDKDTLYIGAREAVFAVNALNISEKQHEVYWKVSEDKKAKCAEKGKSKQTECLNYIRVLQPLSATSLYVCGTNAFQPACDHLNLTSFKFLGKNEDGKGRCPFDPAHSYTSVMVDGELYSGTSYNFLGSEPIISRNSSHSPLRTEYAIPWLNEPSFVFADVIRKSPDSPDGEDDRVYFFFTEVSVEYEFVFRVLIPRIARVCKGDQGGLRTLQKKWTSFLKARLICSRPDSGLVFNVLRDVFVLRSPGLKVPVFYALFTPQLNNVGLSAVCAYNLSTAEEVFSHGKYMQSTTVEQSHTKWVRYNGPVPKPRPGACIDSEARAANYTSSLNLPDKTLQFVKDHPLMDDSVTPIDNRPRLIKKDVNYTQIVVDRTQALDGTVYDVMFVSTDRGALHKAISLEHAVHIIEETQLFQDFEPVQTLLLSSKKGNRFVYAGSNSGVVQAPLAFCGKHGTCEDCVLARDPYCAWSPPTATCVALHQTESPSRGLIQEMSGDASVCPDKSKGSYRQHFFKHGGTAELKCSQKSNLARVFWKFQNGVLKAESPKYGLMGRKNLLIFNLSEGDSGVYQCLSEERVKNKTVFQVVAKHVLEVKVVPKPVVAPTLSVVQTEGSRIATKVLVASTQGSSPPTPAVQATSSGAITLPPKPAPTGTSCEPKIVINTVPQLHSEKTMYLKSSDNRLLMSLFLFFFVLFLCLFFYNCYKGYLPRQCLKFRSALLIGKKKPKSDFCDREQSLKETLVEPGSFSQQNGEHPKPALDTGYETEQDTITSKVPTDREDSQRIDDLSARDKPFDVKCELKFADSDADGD
The description is as above.

In experiment [3] the target is T3, N-Myc-Sema4D (addgene # 51599) (UniProt O09126).
T3 sequence: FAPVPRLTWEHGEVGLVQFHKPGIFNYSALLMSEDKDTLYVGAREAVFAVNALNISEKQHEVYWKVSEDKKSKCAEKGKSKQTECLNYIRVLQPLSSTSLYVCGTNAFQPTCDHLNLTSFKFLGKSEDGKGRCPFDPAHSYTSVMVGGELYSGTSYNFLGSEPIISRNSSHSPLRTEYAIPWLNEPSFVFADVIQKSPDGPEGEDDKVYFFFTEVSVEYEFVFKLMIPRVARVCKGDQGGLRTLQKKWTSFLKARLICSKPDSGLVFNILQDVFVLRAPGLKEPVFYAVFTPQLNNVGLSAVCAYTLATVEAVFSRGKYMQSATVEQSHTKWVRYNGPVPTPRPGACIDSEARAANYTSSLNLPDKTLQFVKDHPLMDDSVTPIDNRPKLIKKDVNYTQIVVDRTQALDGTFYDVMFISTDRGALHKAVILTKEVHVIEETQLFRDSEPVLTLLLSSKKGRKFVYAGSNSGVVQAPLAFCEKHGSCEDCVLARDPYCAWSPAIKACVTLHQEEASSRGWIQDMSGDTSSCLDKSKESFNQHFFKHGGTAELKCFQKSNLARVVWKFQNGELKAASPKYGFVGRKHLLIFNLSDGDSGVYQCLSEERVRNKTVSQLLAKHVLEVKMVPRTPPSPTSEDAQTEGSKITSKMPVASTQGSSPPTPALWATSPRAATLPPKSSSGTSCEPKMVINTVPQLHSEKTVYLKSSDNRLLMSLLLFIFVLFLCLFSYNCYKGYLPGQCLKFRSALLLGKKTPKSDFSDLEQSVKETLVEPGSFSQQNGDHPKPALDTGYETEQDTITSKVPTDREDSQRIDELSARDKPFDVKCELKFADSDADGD
Described as above.

The target in experiment [4] is T4, N-myc-Sema6A (UniProt O35464).
T4 sequence: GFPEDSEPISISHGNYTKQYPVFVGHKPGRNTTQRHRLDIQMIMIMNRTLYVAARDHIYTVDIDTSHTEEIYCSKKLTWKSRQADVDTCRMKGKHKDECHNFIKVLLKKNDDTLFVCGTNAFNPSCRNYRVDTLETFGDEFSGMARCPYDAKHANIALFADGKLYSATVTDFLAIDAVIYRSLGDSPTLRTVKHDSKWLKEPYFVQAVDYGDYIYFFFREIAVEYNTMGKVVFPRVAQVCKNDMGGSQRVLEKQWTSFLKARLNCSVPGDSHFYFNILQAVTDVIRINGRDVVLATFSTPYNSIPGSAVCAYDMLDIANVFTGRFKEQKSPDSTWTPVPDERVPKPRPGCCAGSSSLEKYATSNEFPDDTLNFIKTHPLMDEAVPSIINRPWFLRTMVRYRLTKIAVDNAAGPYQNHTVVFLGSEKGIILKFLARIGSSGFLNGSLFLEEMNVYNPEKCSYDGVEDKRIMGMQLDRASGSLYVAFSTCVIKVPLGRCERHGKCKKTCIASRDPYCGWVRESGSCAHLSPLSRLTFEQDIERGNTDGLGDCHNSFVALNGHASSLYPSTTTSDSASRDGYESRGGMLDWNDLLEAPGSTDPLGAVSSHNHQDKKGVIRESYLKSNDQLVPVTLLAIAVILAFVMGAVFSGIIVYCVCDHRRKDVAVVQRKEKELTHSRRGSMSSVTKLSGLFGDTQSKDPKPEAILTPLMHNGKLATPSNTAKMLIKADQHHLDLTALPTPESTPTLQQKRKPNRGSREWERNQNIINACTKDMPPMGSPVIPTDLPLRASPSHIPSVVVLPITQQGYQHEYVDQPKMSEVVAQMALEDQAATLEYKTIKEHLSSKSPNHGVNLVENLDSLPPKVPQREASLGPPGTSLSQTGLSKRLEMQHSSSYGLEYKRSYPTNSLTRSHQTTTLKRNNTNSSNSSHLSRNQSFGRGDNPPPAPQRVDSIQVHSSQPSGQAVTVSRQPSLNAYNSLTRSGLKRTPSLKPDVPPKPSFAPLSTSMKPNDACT
Described as above.

For experiment [5], the target named is T5, endogenous Sema4D (mouse (endogenous in E18.5 cortex)) (UniProt O09126).
T5 sequence: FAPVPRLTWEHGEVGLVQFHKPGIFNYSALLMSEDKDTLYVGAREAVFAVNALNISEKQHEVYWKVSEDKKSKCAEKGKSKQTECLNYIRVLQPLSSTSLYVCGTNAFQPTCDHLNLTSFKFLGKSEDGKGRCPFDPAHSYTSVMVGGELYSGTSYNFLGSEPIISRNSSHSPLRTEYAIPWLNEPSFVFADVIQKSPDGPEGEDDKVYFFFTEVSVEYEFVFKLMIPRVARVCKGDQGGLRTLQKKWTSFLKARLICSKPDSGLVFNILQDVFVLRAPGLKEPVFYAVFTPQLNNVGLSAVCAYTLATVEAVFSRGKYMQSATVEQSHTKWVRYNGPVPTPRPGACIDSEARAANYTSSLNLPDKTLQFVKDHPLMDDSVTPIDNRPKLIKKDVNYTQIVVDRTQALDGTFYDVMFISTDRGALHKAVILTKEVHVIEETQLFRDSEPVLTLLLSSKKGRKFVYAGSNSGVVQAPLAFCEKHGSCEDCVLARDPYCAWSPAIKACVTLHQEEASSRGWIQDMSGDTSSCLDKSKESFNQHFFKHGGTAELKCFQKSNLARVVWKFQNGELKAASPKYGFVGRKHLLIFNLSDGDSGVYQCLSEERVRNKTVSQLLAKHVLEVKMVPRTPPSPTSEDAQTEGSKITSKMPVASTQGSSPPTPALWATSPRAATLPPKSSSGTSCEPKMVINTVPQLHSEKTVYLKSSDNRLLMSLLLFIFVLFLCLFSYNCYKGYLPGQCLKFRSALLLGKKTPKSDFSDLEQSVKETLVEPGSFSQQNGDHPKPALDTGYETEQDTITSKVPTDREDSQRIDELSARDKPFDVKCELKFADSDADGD
In words: co-IP; endogenous proteins; anti-Sema4D antibody on E18.5 mouse cortex lysate; Flag lysis buffer with protease and phosphatase inhibitors.

The target in experiment [6] is T3, N-Myc-Sema4D (addgene # 51599). In words: co-IP; competition: co-IP of Sema4D-flag with N-Myc-Sema4D from HEK cells in the presence of increasing amounts (up to 1.5 ug) of HA-Sema7A; Flag lysis buffer.

Results are given in words; binding and its absence hold for the method and conditions named. Binding seen in cells or lysates may run through a third protein. Some binding calls cover weakened binding; strength is not graded here. For part of these data: Where a sequence is shown, tags or fusion partners need not be part of it.

For “sp-flag-hSema4D (from UniProt Q92854 22-862)”, the binding entry in experiment [1] and in experiment [2] was “binds” throughout.

B1: C-terminal GFP-tagged Sema7A (protein, UniProt Q9QUR8 45-646)
chain: QGHSRSGPRISAVWKGQDHVDFSQPEPHTVLFHEPGSFSVWVGGRGKVYHFNFPEGKNASVRTVNIGSTKGSCQDKQDCGNYITLLERRGNGLLVCGTNARKPSCWNLVNDSVVMSLGEMKGYAPFSPDENSLVLFEGDEVYSTIRKQEYNGKIPRFRRIRGESELYTSDTVMQNPQFIKATIVHQDQAYDDKIYYFFREDNPDKNPEAPLNVSRVAQLCRGDQGGESSLSVSKWNTFLKAMLVCSDAATNRNFNRLQDVFLLPDPSGQWRDTRVYGVFSNPWNYSAVCVYSLGDIDRVFRTSSLKGYHMGLPNPRPGMCLPKKQPIPTETFQVADSHPEVAQRVEPMGPLKTPLFHSKYHYQKVVVHRMQASNGETFHVLYLTTDRGTIHKVVESGDQDHSFVFNIMEIQPFHRAAAIQAISLDADRRKLYVTSQWEVSQVPLDMCEVYSGGCHGCLMSRDPYCGWDQDRCVSIYSSQRSVLQSINPAEPHRECPNPKPDEAPLQKVSLARNSRYYLTCPMESRHATYLWRHEENVEQSCEPGHQSPSCILFIENLTARQYGHYRCEAQEGSYLREAQHWELLPEDRALAEQLMGHARALA
Consider B1, for which the binding entry in experiment [3] was “binds”; in experiment [4], “binds weakly”.

B2: endogenous Sema7A (protein, UniProt Q9QUR8 45-646)
chain: QGHSRSGPRISAVWKGQDHVDFSQPEPHTVLFHEPGSFSVWVGGRGKVYHFNFPEGKNASVRTVNIGSTKGSCQDKQDCGNYITLLERRGNGLLVCGTNARKPSCWNLVNDSVVMSLGEMKGYAPFSPDENSLVLFEGDEVYSTIRKQEYNGKIPRFRRIRGESELYTSDTVMQNPQFIKATIVHQDQAYDDKIYYFFREDNPDKNPEAPLNVSRVAQLCRGDQGGESSLSVSKWNTFLKAMLVCSDAATNRNFNRLQDVFLLPDPSGQWRDTRVYGVFSNPWNYSAVCVYSLGDIDRVFRTSSLKGYHMGLPNPRPGMCLPKKQPIPTETFQVADSHPEVAQRVEPMGPLKTPLFHSKYHYQKVVVHRMQASNGETFHVLYLTTDRGTIHKVVESGDQDHSFVFNIMEIQPFHRAAAIQAISLDADRRKLYVTSQWEVSQVPLDMCEVYSGGCHGCLMSRDPYCGWDQDRCVSIYSSQRSVLQSINPAEPHRECPNPKPDEAPLQKVSLARNSRYYLTCPMESRHATYLWRHEENVEQSCEPGHQSPSCILFIENLTARQYGHYRCEAQEGSYLREAQHWELLPEDRALAEQLMGHARALA
For the molecule B2, the binding result in experiment [5] is “binds”.

B3: Sema4D-flag (mouse Sema4D with a C-terminal, cytoplasmic flag tag) (protein, UniProt O09126 24-861)
chain: FAPVPRLTWEHGEVGLVQFHKPGIFNYSALLMSEDKDTLYVGAREAVFAVNALNISEKQHEVYWKVSEDKKSKCAEKGKSKQTECLNYIRVLQPLSSTSLYVCGTNAFQPTCDHLNLTSFKFLGKSEDGKGRCPFDPAHSYTSVMVGGELYSGTSYNFLGSEPIISRNSSHSPLRTEYAIPWLNEPSFVFADVIQKSPDGPEGEDDKVYFFFTEVSVEYEFVFKLMIPRVARVCKGDQGGLRTLQKKWTSFLKARLICSKPDSGLVFNILQDVFVLRAPGLKEPVFYAVFTPQLNNVGLSAVCAYTLATVEAVFSRGKYMQSATVEQSHTKWVRYNGPVPTPRPGACIDSEARAANYTSSLNLPDKTLQFVKDHPLMDDSVTPIDNRPKLIKKDVNYTQIVVDRTQALDGTFYDVMFISTDRGALHKAVILTKEVHVIEETQLFRDSEPVLTLLLSSKKGRKFVYAGSNSGVVQAPLAFCEKHGSCEDCVLARDPYCAWSPAIKACVTLHQEEASSRGWIQDMSGDTSSCLDKSKESFNQHFFKHGGTAELKCFQKSNLARVVWKFQNGELKAASPKYGFVGRKHLLIFNLSDGDSGVYQCLSEERVRNKTVSQLLAKHVLEVKMVPRTPPSPTSEDAQTEGSKITSKMPVASTQGSSPPTPALWATSPRAATLPPKSSSGTSCEPKMVINTVPQLHSEKTVYLKSSDNRLLMSLLLFIFVLFLCLFSYNCYKGYLPGQCLKFRSALLLGKKTPKSDFSDLEQSVKETLVEPGSFSQQNGDHPKPALDTGYETEQDTITSKVPTDREDSQRIDELSARDKPFDVKCELKFADSDADGD
For the molecule B3, in experiment [6], the binding entry is listed as “binds”.

Source of the values: publication PMC11329519.
